Data published in ChEMBL document CHEMBL5346862, “Discovery of the thieno[2,3-d]pyrimidine-2,4-dione derivative 21a: A potent and orally bioavailable gonadotropin-releasing hormone receptor antagonist” (Eur J Med Chem, 2022).

Experiment: Efflux ratio of apparent permeability across basolateral to apical side over apical to basolateral side in human Caco-2 cells incubated for 180 mins by LC/MS/MS analysis
Type: ADME, cell-based

C[C@H]1O[C@@H](O[C@H]2[C@@H](O)C[C@H](O[C@H]3[C@@H](O)C[C@H](O[C@H]4CC[C@@]5(C)[C@H](CC[C@@H]6[C@@H]5C[C@@H](O)[C@]5(C)[C@@H](C7=CC(=O)OC7)CC[C@]65O)C4)O[C@@H]3C)O[C@@H]2C)C[C@H](O)[C@@H]1O [DIGOXIN]
efflux ratio at 3 h: 938
